Binding data for eight molecules are collected here from patent US20030099647A1.

Protein sequences, listed by entry. Tags and fused reporters are not part of them. Residues count along the entry.
UniProt P01579, residues 24-166: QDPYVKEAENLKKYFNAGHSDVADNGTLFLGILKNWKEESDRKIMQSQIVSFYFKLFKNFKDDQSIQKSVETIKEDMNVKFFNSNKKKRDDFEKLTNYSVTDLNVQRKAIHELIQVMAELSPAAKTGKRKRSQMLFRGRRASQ

These are yes or no findings as the source states them, for the method shown. Some results given as binding are weak or reduced against the parent protein; the word gives no strength.

The experiment concerns the target E. coli expressed human interferon gamma (hIFNγ) (human) (UniProt P01579). Kind of experiment: concentration dependent clonal phage ELISA on coated hIFNγ.

B1: Fab phage clone "58C" (Fab, V domains shown)
VH: EVQLLESGGGLVKPGGSLRLSCAASGFTFSSYSMNWVRQAPGKGLEWVSSISSGSSYRYDADSVKGRFTISRDNSKNTLYLQMNSLRAEDTAIYYCADQMGTISGNDYWGQGTLVTVSS
VL: QSVLTQPPSVSVAPGKTATITCGGDNLGGKSLHWYQQKPGQAPVLVVYDDSDRPSGIPERFSGSNSGNTATLTIDRVEDGDEADYYCQVWDGSSDQRVFGGGTRLTVLG
For B1, the binding entry is “binds”.

B2: Fab phage clone "67C" (Fab, V domains shown)
VH: ANTLEESGPTLVQPTQTLTLTCSYSGFSLSSNEAGVGWIRQPPGKAPEWLALLYWDDDKRYSPSLRSRLIVNKDTSKSQVVLTMTNMDPVDTATYYCAHRLVRYGGYSTGGFDVWGQGTTVTVSS
VL: DIVMTHTPLSLPVTPGEPASISCRSSQSLLRSNGYNYLAWYVQKPGQSPQLLIYLASNRASGVPDRFSGSGSGTDFTLKISSVEAEDVGVYYCVHGVHIPYTFGQGTKLEIKR
On to B2, for which the binding entry was “binds”.

B3: Fab phage clone "RD-A2" (Fab, V domains shown)
VH: QVQLQQWGAGLLKPSETLSLTCAVYGGSFSGYYWSWIRQPPGKGLEWIGEINHSGSTNYNPSLKSRVTISVDTSKNQFSLKLSSVTAADTAVYYCARDKGSRITIFGVVGSAGFDYWGQGTLVTVSS
VL: DVVMTQSPLSLPVTPGEPASISCRATQSLLHGNGHNYLDWYLQKPGQSPHLLIYMGSNRASGVPGRFSGTESGRNFTLKISRVEAEDVGVYYCMQALQLPPTFGQGTRVDIKR
Take B3: the binding result is reported as “binds”.

B4: Fab phage clone "57D" (Fab, V domains shown)
VH: EVQLVQSGGGLVQPGGSLRLSCAASGFTVSSNYMSWVRQAPGKGLEWVSVIYSGGSTYYADSVKGRFTISRDNSKNTLYLQMNSLRAEDTAVYYCARDSDGGDYGYWGQGTLVTVSS
VL: EIVLTQSPGTLSLSPGERATLSCRASQYVSSNSLAWYQQKAGQAPRLLIYGASNRATGIPDRFSGSGSGTDFTLTISRLEPEDFAVYYCQQYGSSPITFGQGTRLEIKR
Consider B4, for which the binding result is given as “binds”.

B5: Fab phage clone "RD-B1" (Fab, V domains shown)
VH: QVTLKESGPVLVKPTETLTLTCTVSGFSLSNARMGVSWIRQPPGKALEWLAHIFSNDEESYSTSLKSRLTISKDTSQSQVVLTMTNMDPVDTATYYCARLLLYEGFDPWGQGTLVTVSS
VL: DIVMTHTPLSSPVTLGQPASISCRSSQSLVHSDGNTYLSWLHQRPGQPPRLLIYKISNRFSGVPDRFSGSGAGTDFTLKISRVEAEDVGLYYCMQATQLPYTFGQGTKLEIKR
For the molecule B5, the binding result is listed as “binds”.

B6: Fab phage clone "57E" (Fab, V domains shown)
VH: QVQLQESGPGLVKPSETLSLTCAVSGGSISSGGYSWSWIRQPPGKGLEWIGYIYHSGSTYYNPSLKSRVTISVDRSKNQFSLKLSSVTAADTAVYYCARGDWGYFDYWGQGTLVTVSS
VL: NFMLTQPHSVSESPGKTVTISCTGSSGSIANNYVHWYQQRPGSAPTTVIFEDDQRPSGVPDRFSGSVDSSSNSASLSISGLKTEDEADYYCQSYDNSNSFVVFGGGTKLTVLG
Turning to B6, the binding entry was “binds”.

B7: Fab phage clone "IFN-A" (Fab, V domains shown)
VH: EVQLQQWGAGLLKPSETLSLTCAVYGGSFSGYYWSWIRQPPGKGLEWIGEINHSGSTNYNPSLKSRVTISVDTSKNQFSLKLSSVTAADTAVYYCARGWPTYVWGSYRPKGYFDYWGQGTLVTVSS
VL: EIVLTQSPLSLPVTPGEPASISCRSSQSLLHTNEYNYLDWYLQKPGQSPQLLIYLGSNRAPGVPDRFSGSGSGTDFTLRISRVEADDVGVYYCMQALQTPRTFGQGTKLEIKR
As for B7, the binding entry is on record as “binds”.

B8: Fab phage clone "BS-A" (Fab, V domains shown)
VH: QVQLQQWGAGLLKPSETLSLTCAVYGGSFSGYYWSWIRQPPGKGLEWIGEINHSGSTNYNPSLKSRVTISVDTSKNQFSLKLSSVTAADTAVYYCARGRARNWRSRFDYWGQGTLVTVSS
VL: NFMLTQPHSVSESPGKTVTISCTGSSGSIASHYVQWYQQRPGSAPTNVIYEDKERPSGVPDRFSGSIDSSTNSASLTISGLKTEDEADYYCQSYDSSNQWVFGGGTKLTVLG
For B8, the binding entry is “binds”.
